Assay results published in patent publication EP3196312B1, “EFFICIENT CONVERSION OF METHYLGLYOXAL INTO HYDROXYACETONE USING NOVEL ENZYMES AND APPLI CATIONS THEREOF” (Metabolic Explorer, priority 2016, dated 2017).
The name of at least one read-out is uncertain.

Assays:
[1] = biological target: T1, Escherichia coli YqhD (alcohol dehydrogenase, Uniprot Q46856), wild type, SEQ ID NO: 7 (Escherichia coli, UniProt Q46856); experiment: Methylglyoxal reductase kinetic parameters of purified enzyme (NAD(P)H consumption at 340 nm); format: biochemical; details: substrate methylglyoxal 0.1-40 mM; cofactor NADPH; 20mM Hepes (pH7.5) 0.1mM ZnSO4; 30°C
T1 sequence (Q46856 1-387): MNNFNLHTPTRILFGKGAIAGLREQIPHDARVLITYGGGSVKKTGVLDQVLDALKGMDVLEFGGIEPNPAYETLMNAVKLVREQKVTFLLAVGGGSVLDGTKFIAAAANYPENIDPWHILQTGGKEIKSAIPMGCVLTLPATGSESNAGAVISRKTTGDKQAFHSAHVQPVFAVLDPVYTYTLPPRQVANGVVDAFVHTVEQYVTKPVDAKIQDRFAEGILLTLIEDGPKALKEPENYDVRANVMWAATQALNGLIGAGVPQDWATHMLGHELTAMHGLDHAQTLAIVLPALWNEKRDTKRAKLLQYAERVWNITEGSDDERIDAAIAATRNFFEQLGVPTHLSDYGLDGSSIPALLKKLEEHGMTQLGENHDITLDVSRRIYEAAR
Protocol: (§1) Except for the strain 18, the proteins were purified from the crude cell-extract by affinity on a Profinity column (BIORAD, Bio-Scale Mini Profinity exact cartridge 5 ml) according to the protocol recommended by the manufacturer. The crude extract was loaded on a 5 ml Profinity exact cartridge equilibrated with 100 mM potassium phosphate pH 7.6. The column was washed with 10 column volumes of the same buffer and incubated 30min with 100 mM potassium phosphate pH 7.6, 100 mM fluoride at room temperature. The protein was eluted from the column with 2 column volumes of 100 mM potassium phosphate pH 7.6. The tag remained tightly bound to the resin and the purified protein was released. The fractions containing the protein were pooled, concentrated and loaded on a gel filtration column (Superdex 200 10/300 GL column, GE Healthcare) equilibrated with different storage buffers (Table 3). Protein concentration was measured using the Bradford protein assay.
(§2) Methylglyoxal reductase activity (MGR) was determined by measuring the consumption of NAD(P)H at 340 nm on a spectrophotometer at 30°C (λ340 = 6290 M^-1 cm^-1). The reaction mixture (1mL) containing assay buffer and purified enzyme was incubated for 5 min at 30°C. Then, 0.1-40 mM methylglyoxal was added to start the reaction. […] Kinetic parameters were determined with Sigmaplot.

[2] = biological target: T2, Escherichia coli YqhD variant YqhD*(G149E), SEQ ID NO: 9 (Escherichia coli, UniProt Q46856, G149E); experiment: as above; format: biochemical; details: substrate methylglyoxal 0.1-40 mM; cofactor NADPH; 20mM Hepes (pH7.5) 0.1mM ZnSO4; 30°C
T2 sequence (Q46856 1-387 G149E): T1 sequence (Q46856 1-387)
Protocol: as §1, §2

`CC(=O)C=O` [methylglyoxal] was tested, and the kcat/Km [1] was 400 M⁻¹ s⁻¹ and the kcat/Km [2] was 800 M⁻¹ s⁻¹.
